At least one structure is not confirmed: it was looked up by name or label, or the drawing left a doubt.
Legend:
[1] = system: mouse model of BLM-induced lung injury; test: Histopathological evaluation of lung sections, H&E staining; type: in vivo; settings: Effect example 7; mice; 30 mg/kg oral qd 12 days
Experimental: Experimental objective: This group of experiments aimed to investigate the therapeutic potential of the compound S15 in acute lung injury and inflammation induced by bleomycin (BLM).
Experimental grouping (8 mice per group):
Model group (BLM): the mice received BLM (1.7 U/kg) via intratracheal instillation;
Compound S15 group (S15): this group was divided into three dose groups, namely 30, 60 and 90 mg/kg;
Positive control group (Nintedanib): Nintedanib administration group;
Negative control group (Control): only saline was used.
1) Material acquisition: The fresh tissue was fixed in 4% paraformaldehyde for more than 24 hours. The tissue was removed from the fixative solution and trim the tissue at the target site. The trimmed tissue was marked and placed in the dehydration box for later use.
2) Dehydration: The dehydration box was put in the dehydrator and different concentration gradients of ethanol was used sequentially for dehydration. 75% ethanol (4 hours), 85% ethanol (2 hours), 90% ethanol (2 hours), 95% ethanol (1 hour), absolute ethanol I (30 minutes), absolute ethanol II (30 minutes), alcohol benzene (5-10 minutes), xylene I (5-10 minutes), xylene II (5-10 minutes), wax I (1 hour), wax II (1 hour), wax III (1 hour). […]

[2] = system: pulmonary fibrosis induced by bleomycin in mice; test: MASSON staining and α-SMA immunohistochemical staining of lung sections; type: in vivo, mouse; settings: Effect example 7, 30 mg/kg oral qd 12 days, compared with nintedanib and S11-B
Experimental: The grouping of mice is the same as that in Effect example 2.
1) Dewaxing to water of the paraffin sections: the sections were put into xylene I (20 minutes)-xylene II (29 minutes)-absolute ethanol I (5 minutes)-absolute ethanol II (5 minutes)-75% ethanol (5 minutes), and then washed with tap water.
2) Potassium dichromate staining: the sections were soaked in potassium dichromate overnight and washed with tap water.
3) Iron hematoxylin staining: iron hematoxylin solution A and B were mixed in an equal ratio to form an iron hematoxylin staining solution, then the sections were put into iron hematoxylin for about 3 minutes, washed with tap water, differentiated with a solution of hydrochloric acid in ethanol, and then rinsed with tap water.
4) Ponceau red acid fuchsin staining: the sections were put into a Ponceau red acid fuchsin solution for 5 to 10 minutes and rinsed with tap water.
5) Phosphomolybdic acid staining: the sections were put into an aqueous phosphomolybdic acid solution for 1 to 3 minutes.
6) Aniline blue staining: after the phosphomolybdic acid staining, the sections were not washed with water, but directly put into an aniline blue staining solution for staining for 3 to 6 minutes.
7) Differentiation: the sections were differentiated with 1% glacial acetic acid, and dehydrated with two cylinders of absolute ethanol. […]

[3] = system: pulmonary fibrosis induced by bleomycin in mice; test: Hydroxyproline level of the whole lung; type: in vivo, mouse; settings: Effect example 7; compared with the BLM group
Experimental: The change in hydroxyproline was determined by using a hydroxyproline detection kit, the steps are as follows:
1) The wet weights of the lung tissues in different groups were accurately weighed, and the lung tissues were placed in a 20 ml centrifuge tube after weighing.
2) 1 ml of hydrolysate was added to a 20 ml centrifuge tube and the tube was placed in boiling water at a constant temperature for 20 minutes.
3) The pH of the sample was adjusted to 6.0-8.0 with the reagents provided in the kit.
4) The reagents in the centrifuge tube were made up to 10 ml with distilled water, and mixed thoroughly.
5) 5 ml of hydrolysate was taken from the centrifuge tube, an appropriate amount of activated carbon was added, mixed thoroughly, centrifuged at 3500 rpm for 10 minutes in a centrifuge, and 1 ml of upper supernatant layer was taken for subsequent monitoring.
6) Reagents 1, 2, and 3 were added in order, mixed thoroughly, and then placed in a water bath at 60° C. for 15 minutes, then placed at room temperature for 5 minutes, and centrifuged in a centrifuge at 3500 rpm for 10 minutes. […] Distilled water was used as the zero setting and the absorbance value of each sample at 550 nm wavelength was determined.
7) A standard curve was drew based on the absorbance of the standard, and used as a basis to determine the hydroxyproline content of each sample. […]

SMILES | BLM-induced lung injury, H&E staining [1] | pulmonary fibrosis, Masson trichrome staining [2] | hydroxyproline level of the whole lung [3]
Cc1ccc([C@H](C)NC(=O)c2cccc(C(F)(F)F)c2)cc1-c1ccc2nc(Nc3cnn(C4CC4)c3)ncc2c1 [Compound S11-A] | significantly improved | significantly reduce BLM-induced lung injury and inflammation, and can also reduce pulmonary fibrosis | significantly reduce the level of hydroxyproline
Cc1ccc([C@@H](C)NC(=O)c2cccc(C(F)(F)F)c2)cc1-c1ccc2nc(Nc3cnn(C4CC4)c3)ncc2c1 [Compound S11-B] | – | – | significantly reduce the level of hydroxyproline

— patent US11655239B2 (SHANGHAI INSTITUTE OF MATERIAL MEDICA, CHINESE ACADEMY OF …, priority 2019, dated 2023)
